Experimental data reported in patent publication US10047036B2, “Method for the synthesis of hydroxy-triglycerides and uses thereof for the prevention and treatment of diseases” (UNIVERSITAT DE LES ILLES BALEARS, priority 2014, dated 2018).
For at least one compound, name, drawing or mass did not settle the structure.

Assay: membrane transition temperatures by X-ray diffraction
Type: physicochemical
Details: POPE with 1 mol % of TGM, versus POPE Control
Text: As can be appreciated, the presence of TGM induce a very important reduction in the lateral surface tension which is evident from the reduction in the value of the lamellar-to-hexagonal (L-a-HII) transition temperature, which in turn indicates an increase in non-lamellar propensity: Table 12). This effect has an important repercussion on the functionality of the membrane, as this structure allows for the anchoring of certain membrane proteins necessary for cell signalling. For this reason, it can be said that the TGMs have a positive effect on cell signalling because they allow the propagation of cell signals which are lost in association with a wide variety of diseases. This effect shown on the structure of the membrane explains in part why certain oils, such as olive oil or fish oil, have important beneficial properties for the prevention of various diseases, such as cancer, cardiovascular/metabolic diseases and neurological/neurodegenerative diseases. FIG. 6 and Table 12 show clearly how all the TGMs have a similar effect, although with minor nuances in each case. The effect on the solid-liquid transition (Tm) and the lamellar to hexagonal transition (TH) was measured in membranes of palmitoyl-oleoyl phosphatidylethanolamine (POPE) by means of X-ray diffraction in the absence of (POPE Control) or presence of 1 mol % of each one of the indicated TGMs.

## CCCCCCCCC=CCCCCCCC(O)C(=O)OCC(COC(=O)C(O)CCCCCCC=CCCCCCCCC)OC(=O)C(O)CCCCCCC=CCCCCCCCC (stereo not shown) [TGM1, 1,2,3-tri(2′-hydroxy-octadec-9′-enoyl)glycerol]
  Effect on TH: ↓3 °C
